# The list shows a part of the results. The main result of the screen is listed elsewhere. These columns were measured beside it and carry no call. The list favours compounds with an active or inconclusive main result. Words in brackets tell the shape of the fitted curve; partial curves, single points and poor fits give uncertain potencies.
# Assay: qHTS Assay for Identifying the Cell-Membrane Permeable IMPase Inhibitors
# Conditions: CHO-M1 cells, IP1 accumulation, HTRF TR-FRET ratio; measured here: donor channel 620 nm AC50
# Description: NCGC IMPase Assay Overview
# Lithium has been widely used for the treatment of bipolar disorder. But lithium has a narrow therapeutic index and it can cause side effects such as thirst, weight gain, tremor, polyuria and memory problems. Although the mechanism for lithium action in treatment of bipolar disorder is still not fully understood, inhibition of inositol monophosphatase (IMPase) and the subsequent depletion of the inositol pool in living cells have been implicated as the primary therapeutic benefit of lithium therapy. Therefore, a selective IMPase inhibitor with reduced side effects might be a good drug candidate to replace lithium for the treatment of bipolar disorder. Several IMPase inhibitors have been discovered previously. However, they are not suitable for therapeutic use because of their poor cell membrane penetrability or oral bioavailability; the development of new cell-permeable IMPase inhibitors is needed.
# IMPase catalyzes the hydrolysis of inositol-1-phosphate (IP1) to release free inositol. Binding of an agonist to a Gq coupled GPCR results in the activation of PLC, which hydrolyzes the PIP2 to form inositol-1,4,5-trisphosphate (IP3) and diacyl glycerol (DAG). While DAG activates protein kinase C (PKC), IP3 triggers the elevation of intracellular free Ca2+. The IP3 is very rapidly inactivated by hydrolysis to IP2, IP1 and then inositol by a series of enzymes including IMPase. Free inositols are used for synthesis of PI and thus start another inositol cycle.
# To identify new cell-permeable IMPase inhibitors, we developed a cell-based IMPase assay in which the cytosolic IP1 is measured by a time-resolved fluorescence resonance energy transfer (TR-FRET) assay. In this assay, an IP1 specific antibody is used to detect the labeled IP1 tracer. When the cell lysate contains the elevated IP1 due to the inhibition of IMPase, the TR-FRET between the labeled antibody and IP1 tracer is disrupted resulting in a reduction in the total signal. Since the TR-FRET is used, this cell-based assay is a homogenous assay without cell wash and medium change that is suitable for assay miniaturization and HTS.
# NCGC IMPase Assay Protocol Summary
# A Chinese hamster ovary (CHO) cell line stably expressing the M1 receptor (CHO-M1) was obtained from ATCC and maintained in F-12 Kaighn's media (Invitrogen, Carlsbad, CA, 21127) supplemented with 10 % FBS, 100 units/ml penicillin, 100 ug/ml streptomycin and 250 ug/ml geneticin at 37C, 5% CO2 in a humidified atmosphere. Before the assay, aliquots of cells were frozen and stored at -135C. The assay was performed in 1536-well format. Data are reported for both the ratio of the two emission wavelengths, and also for the component 'donor' channel, Em2=620. […] AC50 values were determined from concentration-response data modeled with the standard Hill equation.
# IMPase 1536-well assay protocol:
# (1) Plate 4 ul/well (2000 cells) of cell suspension from frozen CHO-M1 Cells in white, tissue culture treated 1536-well plates that are cultured at 37C, 5 % CO2 for 16 to 30 hours.
# (2) Add 23 nl/well of compound in DMSO solution. The final titration for each compound was between 0.6 nM and 46 uM.
# (3) Add 1 ul of carbachol (50 uM in stimulation buffer containing10mM HEPES, 1mM CaCl2, 0.5 mM MgCl2, 4.2 mM KCl, 146 mM NaCl, 5.5 mM glucose, 50mM LiCl, pH 7.4.
# (4) Incubation at 37C, 5 % CO2 for 30 min.
# (5) Add 1 ul/well of d2-conjugated IP1 (d2-IP1) and 1 ul/well of Eu+ cryptate conjugated anti-IP1 antibody (Eu+-Ab) prepared in the cell lysis buffer, both from the IP-One kit (Cisbio, MA).
# (6) Incubate at room temperature for 10 minutes.
# (7) Detect the assay plate (Ex = 320, Em1 =665 and Em2 620) in a ViewLux plate reader.
# inositol monophosphatase, IMPase, IMPase inhibitor, lithium, bipolar disorder, IP-One, HTRF, qHTS, NIH roadmap, NCGC
# Note: In the gene ID and protein GI references for this assay, rat IMPase is referenced instead of hampster as hamster accession numbers were not available.
row,SMILES,AC50
1,COc1ccccc1NC(=O)Cc1noc(CN(C)Cc2cccs2)n1,"3.16 µM [falling, partial curve]"
2,CCn1c(SCC(=O)N2CCc3ccccc3C2)nc2sc(C)c(C)c2c1=O,"35.5 µM [rising, single point]"
3,CCS(=O)(=O)N1CCCC(C(=O)NC2CCCC2)C1 (stereo not drawn),"6.31 µM [rising, single point]"
4,COc1ccccc1C1C=C(c2ccccc2)Nc2nnnn21 (stereo not drawn),"31.6 µM [falling, single point]"
5,Cc1ccc(C)c(NC(=O)CN2C(=O)CNC2=O)c1,"0.02 µM [falling, full curve, poor fit]"
6,COc1cccc(N2CCN(C(=O)c3[nH]c(C)c(C(C)=O)c3C)CC2)c1,"6.31 µM [falling, single point]"
7,CCOc1ccc(-n2c(SCC(=O)NC(C)CC)nc3n[nH]c(C)c3c2=N)cc1 (stereo not drawn),"25.1 µM [rising, single point]"
8,O=C(CSc1nnnn1-c1ccccc1Cl)Nc1ccc2c(c1)OCCO2,"3.16 µM [falling, partial curve]"
9,O=C(CN1CCN(C(=O)c2ccco2)CC1)Nc1ccc2c(c1)OCCO2,"0.251 µM [rising, full curve, poor fit]"
10,CCOC(=O)c1ccc(CNC(=O)C2CCCCC2C(=O)OCC(F)(F)F)o1 (stereo not drawn),"5.01 µM [falling, single point]"
11,O=C(c1cc(-c2ccc3c(c2)OCO3)on1)N1CCN(c2ccccc2)CC1,"0.316 µM [falling, full curve]"
12,Cc1cccc(OCc2nnc(SCC(=O)N3CCN(c4ccccc4)CC3)o2)c1C,"0.316 µM [falling, full curve]"
13,Cc1ccc(C(=O)c2oc3ccccc3c2NC(=O)COc2ccccc2Cl)cc1,"31.6 µM [rising, single point]"
14,CCCc1cc(C(=O)Nc2cccc(Cl)c2)no1,"0.891 µM [falling, full curve]"
15,CC(=O)NCCn1c(SCC(=O)c2ccccc2)nc2ccccc2c1=O,"0.0126 µM [rising, full curve, poor fit]"
16,CCN1C(=O)c2cccc3c(N)ccc1c23,"10 µM [falling, single point]"
17,O=C(NCc1ccco1)C(Cc1ccccc1)N1C(=O)c2ccccc2C1=O (stereo not drawn),"1.26 µM [falling, full curve, poor fit]"
18,COC(=O)C(C)Oc1ccc(=O)[nH]n1 (stereo not drawn),"5.01 µM [falling, single point]"
19,COc1ccc(N2C(=O)CC(Cc3ccccc3)C2=O)cc1 (stereo not drawn),"6.31 µM [falling, single point]"
20,Cc1nc2c(n1C1CCCCC1)C(=O)c1ccccc1C2=O,"10 µM [rising, single point]"
21,COC(=O)CSc1nnc(CNC(=O)c2ccco2)n1-c1ccc(F)cc1,"3.16 µM [rising, full curve]"
22,CCN(CC)C(=O)N1CCN(C(=O)c2ccc(C)cn2)CC1,"5.01 µM [falling, single point]"
23,COc1ccc(OC)c(Nc2nc(-c3sc(NC(=O)c4ccccc4)nc3C)cs2)c1,"6.31 µM [rising, single point]"

row,SMILES,AC50
1,CCOC(=O)c1cc(OC(=O)c2ccc(OC)c(OC)c2)n(-c2ccccc2)n1,"6.31 µM [falling, single point]"
2,COc1ccc(-c2cc(C(F)(F)F)n3nc(C(=O)N4CCCCC4)cc3n2)cc1OC,"0.00501 µM [rising, full curve, poor fit]"
3,CCOC(=O)Cc1nnc(NC(=O)CSc2nnc3c4ccccc4n(C(C)C)c3n2)s1,"2 µM [rising, full curve]"
4,CCOC(=O)c1[nH]c2cc(OC)c(OC)cc2c1N,"12.6 µM [falling, single point]"
5,CCOC(=O)C1=C(N)OC2=C(C(=O)CCC2)C1c1ccccc1OCC (stereo not drawn),"3.98 µM [rising, full curve, poor fit]"
6,Cc1nnc(NC(=O)CCCCCN2C(=O)C3C4C=CC(C4)C3C2=O)s1 (stereo not drawn),"0.224 µM [falling, full curve, poor fit]"
7,O=C(Cn1cnc2c(nnn2Cc2ccc(F)cc2)c1=O)N1CCCc2ccccc21,"3.16 µM [rising, single point]"
8,COC(=O)Sc1nnc(-c2ccc(Br)cc2)o1,"20 µM [rising, single point]"
9,N#C/C(=C\c1c(Oc2ccc(Br)cc2)nc2ccccn2c1=O)c1nc2ccccc2s1,"2.51 µM [falling, partial curve]"
10,Cc1ccc(N2C(=O)c3ccc(C(=O)N4CCOCC4)cc3C2=O)cc1C,"12.6 µM [falling, partial curve]"
11,Oc1ccc(NCc2ccc(OCc3ccccc3Cl)cc2)cc1,"6.31 µM [falling, single point]"
12,Cn1c(SCC(=O)Nc2ccc3nc(SCC(=O)N4CCCC4)sc3c2)nnc1-c1ccccc1,"0.00398 µM [falling, full curve, poor fit]"
13,CCn1c(SCC(=O)Nc2nccs2)nnc1-c1ccc(S(=O)(=O)N2CCCCCC2)cc1,"5.01 µM [rising, single point]"
14,CC(C(=O)NCc1cccnc1)N1C(=O)c2ccccc2C1=O (stereo not drawn),"1.26 µM [falling, full curve]"
15,Cc1nc(C(C)(C)O)n(-c2ccccc2)n1,"0.00501 µM [falling, full curve, poor fit]"
16,CCCCN(CC)C(=O)Cc1ccccc1OC,"7.94 µM [falling, partial curve, poor fit]"
17,CCCC1(C(=O)OCC)NC(c2ccc(OC)cc2OC)C2C(=O)N(c3ccccc3)C(=O)C21 (stereo not drawn),"0.02 µM [rising, full curve, poor fit]"
18,N/C(=N\OC(=O)Cc1ccc(-c2ccccc2)cc1)c1ccccn1,"25.1 µM [falling, single point]"
19,COc1ccc(NC(=O)Nc2ccccc2C)c(OC)c1,"3.16 µM [falling, single point]"
20,CCOc1ccccc1NC(=O)CSC1=Nc2ccccc2C2=NC(CC(=O)NC3CCCCC3)C(=O)N12 (stereo not drawn),"0.0224 µM [falling, full curve, poor fit]"
21,CC(=O)NCCn1c(SCC(=O)NCCC(C)C)nc2ccccc2c1=O,"1.26 µM [rising, partial curve, poor fit]"
22,NC(=O)c1ccccc1NC(=O)Nc1cccc(Cl)c1,"31.6 µM [rising, single point]"
23,O=C(CCS(=O)(=O)Cc1ccccc1)NCC1CCCO1 (stereo not drawn),"3.16 µM [rising, single point]"

# Reformatted tab-delimited: entries from further up
row	SMILES	AC50
14	CC(C(=O)NCc1cccnc1)N1C(=O)c2ccccc2C1=O (stereo not drawn)	1.26 µM [falling, full curve]
15	Cc1nc(C(C)(C)O)n(-c2ccccc2)n1	0.00501 µM [falling, full curve, poor fit]
16	CCCCN(CC)C(=O)Cc1ccccc1OC	7.94 µM [falling, partial curve, poor fit]

# More structures:

row,SMILES,AC50
1,CC(Cc1cccs1)NC(=O)Nc1ccccc1 (stereo not drawn),"15.8 µM [rising, single point]"
2,O=C(Nc1nccs1)c1ccc2nccnc2c1,"0.794 µM [falling, full curve, poor fit]"
3,COc1ccc(Oc2c(C=O)c3ccccc3n2C)cc1,"15.8 µM [falling, single point]"
4,COc1ccc(/C=C/C(=O)OC(C)CN2CCOCC2)cc1 (stereo not drawn),"6.31 µM [falling, partial curve]"
5,Cc1ccc(S(=O)(=O)N(C)CC(=O)NCc2ccncc2)cc1,"0.0251 µM [falling, full curve, poor fit]"
6,CCCC1S/C(=N/N=C/c2ccc(OC)cc2)N(Cc2ccccc2)C1=O (stereo not drawn),"0.794 µM [falling, full curve, poor fit]"
7,O=C1CCCN1c1ccc(S(=O)(=O)NCCOc2ccccc2)cc1,"0.1 µM [falling, single point]"
8,O=C(NCCCn1ccnc1)C(=O)NCc1ccc(Cl)cc1,"12.6 µM [rising, partial curve]"
9,O=C(c1ccco1)N1CCN(C(=O)c2cc3c(=O)oc4ccccc4c3s2)CC1,"31.6 µM [rising, single point]"
10,Cc1cc(C)nc(Nc2ncc(O)n2-c2ccc(C)c(Cl)c2)n1,"0.00501 µM [falling, full curve, poor fit]"
11,COc1ccc(C2C3=C(N=C4SCC(=O)N42)c2ccccc2CC3)cc1 (stereo not drawn),"5.01 µM [falling, single point]"
12,COc1ccccc1NC(=O)Cc1noc(CSc2nnc(C)s2)n1,"0.01 µM [falling, full curve, poor fit]"
13,CCOC(=O)c1cnc2ccc(Cl)cc2c1NCCN(C)C,"1 µM [falling, full curve]"
14,O=C(COc1ccccc1C(=O)N/N=C\c1ccc(O)c(O)c1)N/N=C/c1ccc(O)c(O)c1,"10 µM [falling, partial curve]"
15,COc1cc2cc(Br)cc(Br)c2nc1C,"15.8 µM [rising, partial curve]"
16,O=C(Nc1ccccc1)OCN1C(=O)c2ccccc2C1=O,"0.794 µM [falling, single point]"
17,Cc1ccc2[nH]c(C(=O)O)c(-c3ccccc3)c2c1,"6.31 µM [falling, single point]"
18,Cc1c(C(=O)Nc2ccc(-c3nc4cc(Cl)ccc4o3)cc2)oc2ccccc12,"5.01 µM [rising, partial curve]"
19,COc1ccc(C(CC(=O)O)NC(=O)c2sc3ccccc3c2Cl)cc1 (stereo not drawn),"11.2 µM [rising, partial curve]"
20,CC(C)(C)n1nnnc1C(c1cccnc1)N(Cc1ccccc1)Cc1ccco1 (stereo not drawn),"0.2 µM [rising, single point]"
21,O=C(Nc1ccc(Cl)cc1C(=O)NCCN1CCOCC1)c1ccco1,"35.5 µM [falling, single point]"
22,CC(C)CN1C(=O)/C(=C/c2cccs2)NC1=S,"12.6 µM [falling, single point]"

# From PubChem BioAssay AID901 (National Center for Advancing Translational Sciences (NCATS), 2007)
